Reference: PubChem BioAssay AID1259405 (NCATS, 2018)
Test: 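Mouse-designed siRNAs used to find CHO productivity engineering targets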 (primary screen). Cells: Chinese hamster CHO-K1 ovary cells with stable secreted eGFP expression. Reagents: single siRNA against mouse genes, 0.8 pmol siRNA per well (2 µl of 400 nM stock). Duration: 3 days. Measurement: 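Per-well intracellular GFP measured by laser scanning cytometry, plus viability from ATP luminescence, each relative to plate median of non-targeting control wells, in %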. Scale: GFP, % of control: higher = more GFP per well, higher productivity. Hit rule: 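a knock-down is called active if GFP reaches 120% or more of non-targeting control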.
Shown is an unselected part of about 50,000 reagents. Over the whole deposit, about 4,000 (8%) were called active. 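Mouse siRNA library applied to hamster cells; one well for each siRNA.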 Unmarked entries are inactive. Reagents against one gene are numbered here. Not all columns of the deposit are shown.

GFP, % of control, by gene symbol and reagent
Hsbp1 (GeneID 68196): #1 48.6; #2 111; #3 108
Prss3b (GeneID 67373): #1 76.5; #2 87; #3 63.7
Rsl24d1 (GeneID 225215): #1 69.2; #2 112; #3 164 (active)
Htr1b (GeneID 15551): #1 110; #2 78.3; #3 49.5
Slc4a1 (GeneID 20533): #1 80.8; #2 65.6; #3 36.6
Ska1 (GeneID 66468): #1 40.8; #2 44.7; #3 68.6
Prss29 (GeneID 114662): #1 143 (active); #2 55.3; #3 92.4
Coxfa4l3 (GeneID 433470): #1 70.4; #2 73.8; #3 77.4
Gm9918 (GeneID 432988): #1 141 (active); #2 95.9; #3 74
Tfec (GeneID 21426): #1 101; #2 66.2; #3 66.1
Arl9 (GeneID 384185): #1 66; #2 39.6; #3 79.2
Nras (GeneID 18176): #1 61.8; #2 97.4; #3 40.7
Adam25 (GeneID 23793): #1 107; #2 59.8; #3 102
Plod1 (GeneID 18822): #1 98.4; #2 72.4; #3 60.3
Mmgt1 (GeneID 236792): #1 88.9; #2 87.5; #3 111
Mrpl52 (GeneID 68836): #1 79.2; #2 129 (active); #3 112
Cd93 (GeneID 17064): #1 102; #2 97.7; #3 112
Cep72 (GeneID 74470): #1 55; #2 113; #3 87.4
P2rx6 (GeneID 18440): #1 96; #2 73; #3 84.6
Tfam (GeneID 21780): #1 80.5; #2 112; #3 157 (active)
Galntl5 (GeneID 67909): #1 68.3; #2 93.5; #3 121 (active)
Tcim (GeneID 69068): #1 65.9; #2 55.4; #3 65.4
Vwf (GeneID 22371): #1 171 (active); #2 88.3
Terb1 (GeneID 320022): #1 151 (active); #2 90.5; #3 103
Shcbp1 (GeneID 20419): #1 64.6; #2 24; #3 86.8
Lyst (GeneID 17101): #1 86.9; #2 87.7; #3 54.1
Cntn2 (GeneID 21367): #1 141 (active); #2 87.7
Trim54 (GeneID 58522): #1 43.1; #2 84.4; #3 92.4
Snx19 (GeneID 102607): #1 131 (active); #2 100; #3 75.8

Ordered by “GFP, % of control” (high to low): 4 of the entries above
gene symbol	reagent	GFP, % of control
Rsl24d1 (GeneID 225215)	3	164 (active)
Rsl24d1 (GeneID 225215)	2	112
Htr1b (GeneID 15551)	1	110
Rsl24d1 (GeneID 225215)	1	69.2
